Reference: article PMC8253596

Key:
[1] = target: RDV P2C (aa 689-1149 of the minor outer capsid protein P2), bait fusion from pGBKT7-P2C (Rice dwarf virus); assay: two-hybrid; Matchmaker Gold Yeast Two-hybrid system; prey in pGADT7, bait in pGBKT7, co-transformed into yeast AH109; growth and colour on SD/-Ade-His-Leu-Trp/X-alpha-Gal
[2] = target: RDV P2N (aa 1-688 of the minor outer capsid protein P2), bait fusion from pGBKT7-P2N (Rice dwarf virus); assay: as above

B1: N. cincticeps Rab5, prey fusion from pGADT7-Rab5 (protein, UniProt A0A8F5HV83 1-214)
chain: MANRGGAQRPNGTPQGKICQFKLVLLGESAVGKSSLVLRFVKGQFHEYQESTIGAAFLTQTVCLDDMTVKFEIWDTAGQERYHSLAPMYYRGAQAAIVVYDITNPDTFGRAKTWVKELQRQASPNIVIALAGNKADLANKRSVEFDEAQAYAHENGLLFMETSAKTAMNVNDIFLAIAKKLPKNEQAGGGGSSGQGRRLVESEATTKAPGSCCK
- binding [1]: no binding
- binding [2]: binds

B2: N. cincticeps Rab27a, prey fusion from pGADT7-Rab27a (protein, UniProt A0A8F5HWN5 1-223)
chain: MSSEYDYLIKFLFLGDSGVGKTSFLIRYTDGSFVSKFVSTVGIDFRLKRVVYKTQGRSHIVNLQLWDTAGQERFRSITTAYYKDAMGFLLLFDLTNEQSFLEVRNWLELLKIHAYCEKPDVILCGNKADLVEKRVVPEERAKELAARYGLEYMETSAESGLNVNRAVDTLLDMVMCRMERGVDEAMTRYLGRPVDSVTVGSTARSRGEGSSTADASEQTGCRC
- binding [2]: no binding

These are yes or no findings as the source states them, for the method shown. For part of these data: A result given as binding can be weak or reduced; the word gives no strength. Sequences can lack the tags named with a protein.
